The list shows a part of the results. These are further read-outs of the screen, such as a control signal, another cell line or another target. No call is given for them. Most of these compounds were active or inconclusive in the main read-out, so they are no random draw. Words in brackets tell the shape of the fitted curve; partial curves, single points and poor fits give uncertain potencies.

This assay is described as follows: qHTS Assay for Modulators of Lamin A Splicing. Conditions: HeLa LMNA splicing GFP/RFP minigene ratio, 48 h. In short, it runs like this: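 Read-out is the ratio of GFP to DsRed2 object intensity, acquired by 488 nm laser-scanning cytometry on HeLa lamin A-EGFP minigene reporter cells. Compound incubation 48 hrs at 37 °C in Opti-MEM with 2% FBS; DMSO 0.5% final.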
(In general: Quantitative high-throughput screening tests each substance at several concentrations.)

[1] abbreviates: measured here: RFP viability control channel.
[2] abbreviates: measured here: GFP splicing reporter channel.

For orientation: AC50 means the concentration giving half of the maximal activity seen. Turning to `CC1CCCN(S(=O)(=O)c2ccc(C(=O)Nc3nnc(-c4ccccc4Cl)o3)cc2)C1` (stereo unspecified), under setting [1], the AC50 was 1.58 µM [rising, full curve, poor fit]. In the case of `O=C(NCc1ccc2c(c1)OCO2)c1cccc(S(=O)(=O)N2CCCCC2)c1`, the AC50 under setting [1] was 15.8 µM [rising, single point].

For the molecule `COc1ccc2c(c1)O[C@@H](c1cccc(C(F)(F)F)c1)[C@H](OC(=O)NCCc1ccc(OC)c(OC)c1)C2=O`, the AC50 under setting [1] was 12.6 µM [rising, partial curve]. With `C[C@](N)(Cc1ccc(O)cc1)C(=O)O`, under setting [2], the AC50 is 8.91 µM [falling, partial curve, poor fit]. For the molecule `COc1ccccc1-c1nnc(NC(=O)CSc2nncn2C)s1`, the concentration at half-maximal activity (AC50) under setting [1] is 0.794 µM [rising, partial curve, poor fit].

Turning to `Cc1sc2nc(CN3CCCC3)nc(Cl)c2c1C`, the AC50 under setting [1] was 12.6 µM [rising, single point]. `CCOc1ccc(C(=O)c2ccccc2C(=O)O)cc1OCC`: the AC50 was 0.00355 µM [falling, full curve, poor fit] under setting [2] and 0.00447 µM [falling, full curve, poor fit] under setting [1].

With `COc1ccc(Oc2ccc(N/C=C3/CCCC3=O)cc2)cc1`, under setting [1], the AC50 is 1 µM [rising, partial curve, poor fit]. For the molecule `COc1ccc(CCc2nnc(CCC(=O)NCc3cnn(-c4ccccc4C)c3)o2)cc1`, the half-maximal activity concentration (AC50) runs as follows: under setting [2], 2.24 µM [falling, single point]; under setting [1], 3.98 µM [falling, partial curve]. As for `Cc1ccc2nnnc(-c3ccccc3)c2c1`, the AC50 under setting [1] was 5.01 µM [rising, partial curve, poor fit]. With `O=S(=O)(c1ccc(Oc2ccc(S(=O)(=O)N3CCOCC3)cc2)cc1)N1CCOCC1`, under setting [1], the AC50 was 15.8 µM [rising, partial curve]. Take `O=C(CN(C(=O)Cn1nnc(-c2cccs2)n1)c1ccc2c(c1)OCCO2)NCc1ccccc1`: under setting [1], the AC50 was 0.398 µM [rising, full curve, poor fit]. In the case of `O=c1cc(-c2ccc(O)cc2)oc2cc(O[C@@H]3O[C@H](CO)[C@@H](O)[C@H](O)[C@H]3O[C@@H]3OC[C@](O)(CO)[C@H]3O)cc(O)c12`, the AC50 under setting [2] was 0.0316 µM [falling, full curve, poor fit]. Take `CCOc1ccc(NC(=O)C(=O)NCCc2csc(-c3ccc(C(F)(F)F)cc3)n2)cc1`: under setting [1], the AC50 is 0.0447 µM [falling, full curve, poor fit]. Consider `CCCCNC(=O)CCC(=O)Nc1ccc2nc(N3CCCCC3)cc(C)c2c1`, for which, under setting [2], the AC50 is 10 µM [falling, partial curve]. For `COc1cc(C2C(C#N)=C(N)Oc3c2ccc2ccccc32)ccc1OCC(=O)Nc1cccc(C)c1` (stereo unspecified), the AC50 under setting [2] is 7.94 µM [falling, partial curve, poor fit]. On to `Fc1ccc(-c2ccnc3nc(-n4cccc4)nn23)cc1`, for which the AC50 under setting [2] was 35.5 µM [rising, single point]. `O=C(Cc1cccs1)Nc1nc(-c2ccccc2)cs1`: under setting [1], the AC50 was 14.1 µM [rising, single point]. For `COc1ccc(OC)c(C2/C(=C(/O)c3cnn(-c4ccccc4)c3C)C(=O)C(=O)N2CCN(C)C)c1` (stereo unspecified), the AC50 under setting [1] is 12.6 µM [rising, partial curve]. Regarding `CCN(CC)S(=O)(=O)c1ccc2c(c1)[nH]c(=S)n2CC`, the AC50 under setting [2] was 0.00891 µM [falling, full curve, poor fit]. For `COC(=O)c1c[nH]n2c(=O)c(C(C)C)c(C)nc12`, the AC50 under setting [1] is 1 µM [falling, full curve]. As to `O=C(OCc1nc2ccccc2s1)c1ccco1`, the AC50 is 3.98 µM [falling, partial curve] under setting [2] and 3.98 µM [falling, partial curve, poor fit] under setting [1].

With `COc1ccccc1CNC(=O)c1c(N)n(CCCN2CCOCC2)c2nc3ccccc3nc12`, the AC50 by setting is: under setting [2], 25.1 µM [falling, single point]; under setting [1], 22.4 µM [falling, partial curve]. As to `O=S(=O)(c1ccccc1)c1nc(NCc2ccccc2)sc1Cl`, the AC50 was 7.08 µM [rising, partial curve, poor fit] under setting [2] and 20 µM [rising, partial curve] under setting [1]. As to `Cc1cc(=O)[nH]c(SCC(=O)C23CC4CC(CC(C4)C2)C3)c1C#N`, the AC50 under setting [1] was 11.2 µM [rising, partial curve]. Take `O=C(COc1ccc(Cl)cc1)Nc1nnc(S(=O)(=O)N2CCCCCC2)s1`: under setting [2], the AC50 was 4.47 µM [falling, full curve]. As for `Cc1ccccc1-c1cc(-n2ccnc2)ncn1`, the AC50 under setting [2] was 11.2 µM [rising, partial curve] and the AC50 under setting [1] was 11.2 µM [rising, partial curve]. Turning to `O=C(NCCc1csc(-c2ccc(C(F)(F)F)cc2)n1)c1cccs1`, the AC50 is, setting by setting: under setting [2], 14.1 µM [rising, partial curve]; under setting [1], 14.1 µM [rising, partial curve]. As for `COc1ccccc1N1CCN(C(CNC(=O)C(=O)NCc2cccnc2)c2cccnc2)CC1` (stereo unspecified), the AC50 under setting [2] is 22.4 µM [falling, partial curve, poor fit] and the AC50 under setting [1] was 35.5 µM [falling, partial curve, poor fit]. In the case of `CC(C)Cc1nn2c(=O)cc(COC(=O)c3ccc(NC(=O)C4CCCCC4)cc3)nc2s1`, under setting [1], the AC50 was 1.78 µM [falling, partial curve].

With `CSc1ncccc1C(=O)Nc1nc2ccc(Oc3ccccc3)cc2s1`, the AC50 under setting [1] was 7.08 µM [rising, single point].

In the case of `O=C(NCc1nnc(SCC(=O)N2CCC(Cc3ccccc3)CC2)o1)c1ccccc1F`, the AC50 by setting is: under setting [2], 35.5 µM [rising, single point]; under setting [1], 35.5 µM [rising, single point]. `COc1cc(NC(=O)COC(=O)c2n[nH]c3ccccc23)c(C)cc1[N+](=O)[O-]`: the AC50 under setting [1] was 35.5 µM [rising, single point]. On to `CC1CCCN(c2nc3c(c(=O)n(C)c(=O)n3C)n2Cc2ccccc2)C1` (stereo unspecified), for which the AC50 is 7.08 µM [rising, partial curve] under setting [2] and 0.251 µM [rising, full curve, poor fit] under setting [1].

Turning to `CCn1c(O)c(C=NC2CCCC(C)C2C)sc1=S` (stereo unspecified), the AC50 was 35.5 µM [rising, partial curve, poor fit] under setting [2] and 35.5 µM [rising, partial curve] under setting [1]. With `CCCN1C(=O)/C(=C/c2ccc(C)o2)SC1=Nc1ccc(OC)cc1`, the AC50 is 35.5 µM [falling, single point] under setting [2] and 35.5 µM [falling, single point] under setting [1]. Consider `O=C(NCCN1CCOCC1)NC1(C(F)(F)F)Oc2ccc(Cl)cc2O1` (stereo unspecified), for which the AC50 under setting [1] is 11.2 µM [rising, partial curve].

As to `COc1cccc(-n2c(SCc3ccc(F)cc3)nc3c([nH]c4ccccc43)c2=O)c1`, the AC50 under setting [2] was 5.01 µM [rising, single point].

Turning to `Cc1nn2c(C)c(C(=O)NCc3ccc(OC(C)C)cc3)cnc2c1-c1ccc(F)cc1`, the AC50 under setting [1] is 0.00398 µM [falling, full curve, poor fit]. `Nc1nn(-c2ccccc2)c(N)c1N=Nc1ccc2c(c1)OCO2`: the AC50 reads like this: under setting [2], 35.5 µM [rising, single point]; under setting [1], 15.8 µM [rising, single point]. As for `O=C(NN1C(=O)C2C3c4ccccc4C(c4ccccc43)[C@@H]2C1=O)c1ccccc1` (stereo partly specified), the AC50 under setting [1] was 12.6 µM [rising, partial curve]. Still for that read-out and setting: the result for `Cc1ccc2c(c1)-c1c(c(C(=O)N3CCN(c4cc(C)ccc4C)CC3)nn1C)CS2` reads 11.2 µM [rising, single point]. For `COc1ccccc1C(=O)Nc1ccc(N2CCN(C(C)=O)CC2)cc1`, the AC50 under setting [1] was 2.24 µM [rising, partial curve]. Consider `C=CCN1C2CCCC1CC(NC(=S)Nc1cccc(OC)c1)C2` (stereo unspecified), for which the AC50 under setting [2] is 0.0251 µM [falling, full curve, poor fit]. On to `CNCCNS(=O)(=O)c1cccc2cnccc12`, for which the AC50 is, setting by setting: under setting [2], 5.62 µM [falling, partial curve, poor fit]; under setting [1], 0.00447 µM [falling, full curve, poor fit]. Consider `O=C(NCc1ccco1)c1cnn2c(C(F)(F)F)cc(-c3cccs3)nc12`, for which the AC50 under setting [2] was 31.6 µM [rising, single point]. For `O=C(CSc1ncnc2scc(-c3ccccc3)c12)N1CCN(Cc2ccc3c(c2)OCO3)CC1`, the AC50 under setting [1] is 12.6 µM [rising, partial curve]. On the same count and under the same terms, the result for `O=C(Nc1ccc(-c2cnco2)cc1)c1ccccc1` reads 0.01 µM [falling, full curve, poor fit]; that for `C=C(C)c1cccc(C(C)(C)NC(=O)N2CCN(c3ccc(OC)cc3)CC2)c1`, 11.2 µM [rising, single point]; that for `Cc1cc(C)n(-c2nc3c(c(=O)[nH]c(=O)n3C)n2CC(O)COc2ccc(Cl)cc2Cl)n1` (stereo unspecified), 0.2 µM [rising, full curve, poor fit]. For `CC(C)OCCCNC(=O)Cc1ccc(NC(=O)N2CCCCc3ccccc32)cc1`, the AC50 is, setting by setting: under setting [2], 0.00282 µM [falling, full curve, poor fit]; under setting [1], 1 µM [falling, full curve, poor fit].

`CN(C)S(=O)(=O)c1ccc(NC(=O)N2CCN(c3cccc(C(F)(F)F)c3)CC2)cc1`: the AC50 under setting [1] was 6.31 µM [rising, full curve]. With `CC1=NN(c2ccccc2)C(=O)/C1=C/c1c(O)n(-c2ccc(F)c(Cl)c2)[nH]c1=O`, the AC50 reads like this: under setting [2], 31.6 µM [rising, single point]; under setting [1], 17.8 µM [rising, single point].

Consider `CCCCc1nc(SCC(=O)Nc2ccc(S(N)(=O)=O)cc2)n[nH]1`, for which, under setting [2], the AC50 was 7.08 µM [rising, partial curve, poor fit].

As to `Cc1[nH]nc(N=CC2=C(O)CC(C)(C)CC2=O)c1-c1ccccc1`, under setting [1], the AC50 is 20 µM [rising, partial curve, poor fit].
